The list shows a part of the results.
test: clearance of mutant huntingtin inclusions, primary screen, imaging, HeLa Exon1htt(103Q)mCFP, confocal imaging (AID 853); conditions: aggregate imaging, measured here: aggregate grain fluorescence fraction, at 1.5 µM, stronger effect = lower value;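 also: cells exposed to compound for three days before fixation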

SMILES	fraction fluorescence in grains
Cc1cc(C)cc(OP(C)(=O)Nc2ccc(C)cc2C)c1 (centres undefined)	11.5
Cc1ccc(C)c(NP(C)(=O)Oc2ccccc2)c1 (centres undefined)	52.4
CCOP1(=S)c2c(C)nn(CCC#N)c2N=C(c2ccccc2F)N1C (centres undefined)	17.7
Cc1nn(-c2ccccc2)c2c1P(=O)(N1CCOCC1)N(C)C(c1ccccc1)=N2 (centres undefined)	25.4
O=P1(Nc2ncccn2)COc2ccccc2OC1	31.8
O=P1(Nc2ccc(Br)cn2)COc2ccccc2OC1	55.6
O=P1(Nc2ccccn2)COc2ccccc2OC1	49
Clc1n[nH]nc1-c1nn[nH][15n]1	37.2
CC1(CBr)Cn2c(nc3ccccc3c2=O)S1 (centres undefined)	8.43
COP1(=S)c2c(C)nn(CCC#N)c2N=C(c2ccc(F)cc2)N1C (centres undefined)	7.85
CCC(C)N(CC(C)C)C(=S)SC(NC(C)=O)C(Cl)(Cl)Cl (centres undefined)	30.9
CP(=S)(Nn1cnnc1)Oc1ccccc1 (centres undefined)	37.1
CN1CCCC(OC(=O)C(c2ccccc2)c2ccccc2)C1 (centres undefined)	39.6
Cc1c2non([O-])c-2c(C)[n+](=O)[n+]1[O-]	17.5
CCc1ccc(OP(C)(=O)O)cc1	25.5
Cc1nc2ccc3ccccc3c2o1.O=[N+]([O-])c1cc([N+](=O)[O-])c(O)c([N+](=O)[O-])c1	25
CP(=O)(OC12CC3CC(CC(C3)C1)C2)OC12CC3CC(CC(C3)C1)C2	16.7
CCN(CC)CC(O)COC(=O)C(O)(c1ccccc1)C1CCCCC1 (centres undefined)	50.2
CCc1nc2c(n1)c1c(non1O)c1c2no[n+]1[O-]	42.1
CP(=O)(Oc1ccccc1)N1CCOC1=O (centres undefined)	5
CC1CCN(C(=O)Oc2c(Cl)cc(Cl)c3cccnc23)CC1	43.6
O=P(Nc1nccs1)(c1ccccc1)c1ccccc1	6.84
CCOP(C)(=S)SCC(=O)NC(C)(CC)C(=O)O (centres undefined)	29.5
CP(=O)(Nc1ccc2c(c1)OCCO2)Oc1ccccc1 (centres undefined)	40.7
CN(C)CCOC(=O)C(O)(c1ccccc1)C1CCCCC1 (centres undefined)	46.8
O=C(OC1CN2CCC1CC2)c1cccc(Cl)c1 (centres undefined)	75
CP(=O)(Nc1ccccc1)Oc1ccc(F)cc1 (centres undefined)	36.8
O=P1(Nc2nc3ccc(Cl)cc3s2)COc2ccccc2O1 (centres undefined)	44.3
CP(=O)(Nc1ccccc1F)Oc1ccccc1 (centres undefined)	28.9

From PubChem BioAssay AID853 (Columbia University Molecular Screening Center, 2007)
